According to patent US20030105048A1, “Oligobenzimidazole derivatives and their use as DNA transfecting agents” (priority 1999, published 2003):
Some entries share one result that the patent states for a list of compounds. At least one structure is not confirmed: it was looked up by name or label, or the drawing left a doubt.

System: DNA
Assay: Formation of DNA/derivative complexes by direct measurement of fluorescence
Assay type: binding
Conditions: excitation at 350 nm, detection at 450 nm, DNA 50 μg/ml

Structure (SMILES) | saturation of the DNA groove, oligobenzimidazole derivative/DNA ratio [nmol/µg]
CCCCCCCCCCCCCCCCCCNC(=O)Oc1ccc(-c2nc3ccc(-c4nc5ccc(N6CCN(C)CC6)cc5[nH]4)cc3[nH]2)cc1 [Derivative (1), 4-[6-(4-methyl-1-piperazinyl)-1H,3′H-[2,5′]bisbenzimidazol-2′-yl]-1-octadecylcarbamoyloxy phenyl] | 1.5 to 2
CCCCCCCCCCCCNC(=O)Oc1ccc(-c2nc3ccc(-c4nc5ccc(N6CCN(C)CC6)cc5[nH]4)cc3[nH]2)cc1 [Derivative (2), 4-[6-(4-methyl-1-piperazinyl)-1H,3′H-[2,5′]bisbenzimidazol-2′-yl]-1-dodecylcarbamoyloxy phenyl] | 1.5 to 2
